Experimental data as given in patent US20230110223A1, “ECHOGENIC COMPOSITIONS AND METHODS OF USE THEREOF FOR THE TREATMENT OF PAIN” (InSitu Biologics, Inc., priority 2021, published 2023).

Test system: deceased-porcine (butchered ham and liver) model
Test: Ultrasound echogenicity and tissue extravasation after injection into deceased-porcine tissue
Conditions: injection at approximately 2.5 cm depth, room-temperature deceased-porcine tissue
Description: In this study, the ultrasonographic characteristics of INSB200 were tested and the results compared the results of commonly used aqueous phase local anesthetic preparations.
In a room-temperature deceased-porcine (butchered ham and liver) model, we sequentially injected commonly used local anesthetics: Ropivacaine (0.5%), bupivacaine (0.5%), and liposomal bupivacaine (Exparel). In addition, we injected two different preparations of hydrogel-lipid-microparticle matrix ropivacaine (27 mg/mL and 38 mg/mL). The medicant was deposited into the test medium via 21 gauge - 50 mm needle at approximately 2.5 cm depth for each sample and performed under ultrasound guidance (Sonosite PX and 15-4 MHz probe). Pre and post injection images (FIGS. 1A-2B) were collected for each preparation and evaluated for sample echogenicity and tissue extravasation.

Compound	sample echogenicity on ultrasound	tissue extravasation / tissue spread on ultrasound
CCCCN1CCCCC1C(=O)Nc1c(C)cccc1C (stereo not shown) [bupivacaine 0.5%, bupivacaine]	non-echogenic	significant tissue spread
CCCN1CCCC[C@H]1C(=O)Nc1c(C)cccc1C [ropivacaine 0.5%, Ropivacaine]	non-echogenic	significant tissue spread
